Tested on: A549
Experiment: Cytotoxicity against human A549 cells assessed as reduction in cell viability after 48 hrs by XTT assay
Format: functional, cell-based
Conditions: A549, 48 h

SMILES: COc1cccc2c1C(=O)c1c(O)c3c(c(O)c1C2=O)C[C@@](O)(C(=O)CO)C[C@@H]3O[C@H]1C[C@H](N)[C@H](O)[C@H](C)O1 [DOXORUBICIN]
- IC50: 426 nM

Reference: ChEMBL document CHEMBL4138206, “Acovenoside A Induces Mitotic Catastrophe Followed by Apoptosis in Non-Small-Cell Lung Cancer Cells” (J Nat Prod, 2017)
